# Where a chain is given by its changes, count along the chain named. These are yes or no findings as the source states them, for the method shown. Binding can be weak; no strength is given.
# B1: chimeric BG87P antibody (chBG87P) (antibody, V domains shown)
# VH: QIQLQQSGPELVKPGASVKISCKASGYSFTDYHINWVKQRPGQGLEWIGWIYPGSGYTKYNEKFKVKATLTVDTSSSTAYMHLTSLTSEDSAVYFCARSGIYHYVSSYYFDHWGQGTTLTVSS
# VL: DIVMTQSHTFMSTSVGDRVSITCKASQDVGTAVAWYQQKPGQSPKLLIYWASTRHTGVPDRFTGSGSGTDFTLTISNVQSEDLADYFCQQYSSYTFGGGTKLEIK
# B2: BG87P-21 (antibody, V domains shown)
# VH: QVQLVQSGAEVKKPGASVKVSCKASGYSFTDYHINWVRQAPGQRLEWMGWIYPGSGYTKYNEKFKGRVTITRDTSASTAYMELSSLRSEDTAVYYCARSGIYHYVSSYYFDHWGKGTTVTVSS
# VL: DIQMTQSPSTLSASVGDRVTITCKASQDVGTAVAWYQQKPGKAPKLLIYWASTRHTGVPSRFSGSGSGTEFTLTISSLQPDDFATYYCQQYSSYTFGGGTKVEIK
# B3: BG87P-34 (antibody, V domains shown)
# VH: EVQLQESGGGLVQPGGSLRLSCAASGYSFSDYHINWVRQAPGKGLEWVGYIYPGSGHTKYNEKFKGRFTISRDTSSNTAYLQMNSLRAEDTAVYYCARSGIYHYVSSYYFDHWGQGTLVTVSS
# VL: B2 VL with T10S, V29A, T31S, E70D, D81E, V102L
# B4: BG87P-33 (antibody, V domains shown)
# VH: B3 VH with S30T, G49S, S76K
# VL: B2 VL with V29A, T31S
# B5: BG87P (mouse anti-CLDN6 antibody, hybridoma clone) (antibody, V domains shown)
# VH: B1 VH
# VL: B1 VL
# What was measured:
# cyno CLDN6 (cyno) [1] = assay: flow cytometry on CHOK1/cyno CLDN6 cells, MFI(PE)
# cyno CLDN6 (cyno) [2] = assay: FACS, CHOK1-cyno CLDN6 cells
# cyno CLDN6 (cyno) [3] = assay: flow cytometry, CHOK1/Cyno CLDN6-GFP cells
binder,measurement,setting,value
B1,binding,cyno CLDN6 (cyno) [1],binds
B2,binding,cyno CLDN6 (cyno) [1],binds
B3,binding,cyno CLDN6 (cyno) [2],binds
same,binding,cyno CLDN6 (cyno) [1],binds
B4,binding,cyno CLDN6 (cyno) [1],binds
B5,binding,cyno CLDN6 (cyno) [3],binds
